Experimental data as given in publication PMC5339843.
These are yes or no findings as the source states them, for the method shown. Binding seen in cells or lysates may run through a third protein. Some binding calls cover weakened binding; strength is not graded here. For part of these data: Where a sequence is shown, tags or fusion partners need not be part of it.

The chains behind the UniProt entries cited, without tags or fusion partners.
UniProt Q08857: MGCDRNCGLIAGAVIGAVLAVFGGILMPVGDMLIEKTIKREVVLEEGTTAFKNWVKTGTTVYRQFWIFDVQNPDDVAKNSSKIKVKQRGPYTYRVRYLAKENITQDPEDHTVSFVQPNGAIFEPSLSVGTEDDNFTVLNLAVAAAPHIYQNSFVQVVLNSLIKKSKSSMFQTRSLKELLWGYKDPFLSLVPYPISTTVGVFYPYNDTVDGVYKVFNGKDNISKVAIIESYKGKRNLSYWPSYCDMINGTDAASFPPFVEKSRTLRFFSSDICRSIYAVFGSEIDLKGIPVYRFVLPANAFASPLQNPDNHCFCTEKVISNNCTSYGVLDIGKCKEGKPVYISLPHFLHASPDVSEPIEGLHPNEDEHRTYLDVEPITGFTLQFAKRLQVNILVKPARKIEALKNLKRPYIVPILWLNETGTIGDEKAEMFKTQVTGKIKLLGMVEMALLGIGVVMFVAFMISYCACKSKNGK

How the values were obtained:
[1] = target: T1, Recombined murine CD146-His protein (mouse) (UniProt Q8R2Y2); assay: pull-down; His-CD146-ECD or His-CD146^D4-5 incubated with BMDM cell lysates in the presence of mIgG or AA98 (50 ug/ml); bound CD36 detected by immunoblot with anti-CD36; only the target purified
T1 sequence: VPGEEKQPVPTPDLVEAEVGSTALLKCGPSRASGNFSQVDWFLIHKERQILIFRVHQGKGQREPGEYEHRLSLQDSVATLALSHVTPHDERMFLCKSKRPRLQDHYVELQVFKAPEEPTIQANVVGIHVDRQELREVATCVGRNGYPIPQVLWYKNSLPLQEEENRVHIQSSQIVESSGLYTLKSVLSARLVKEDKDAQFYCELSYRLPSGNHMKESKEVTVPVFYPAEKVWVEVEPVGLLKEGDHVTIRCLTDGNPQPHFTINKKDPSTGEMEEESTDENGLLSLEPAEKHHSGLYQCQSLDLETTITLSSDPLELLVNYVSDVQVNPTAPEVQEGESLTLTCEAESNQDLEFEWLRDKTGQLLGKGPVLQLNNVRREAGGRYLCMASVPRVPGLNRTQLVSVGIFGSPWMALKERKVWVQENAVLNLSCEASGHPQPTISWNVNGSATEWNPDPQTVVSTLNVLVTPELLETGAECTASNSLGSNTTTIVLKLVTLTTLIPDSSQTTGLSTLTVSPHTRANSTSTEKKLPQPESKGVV

[2] = target: T2, CD146 (endogenous, in bone marrow-derived macrophages) (mouse (endogenous in BMDMs)) (UniProt Q8R2Y2); assay: co-IP; endogenous proteins in BMDM lysates; IP with anti-CD146 mAb or anti-CD36 and protein G-agarose, immunoblot; buffer 150 mM NaCl, 50 mM Tris pH 8.0, 0.1% SDS, 0.5% deoxycholate, 1% NP-40; also after oxLDL (50 ug/ml) for the indicated times and with anti-CD146 AA98
T2 sequence: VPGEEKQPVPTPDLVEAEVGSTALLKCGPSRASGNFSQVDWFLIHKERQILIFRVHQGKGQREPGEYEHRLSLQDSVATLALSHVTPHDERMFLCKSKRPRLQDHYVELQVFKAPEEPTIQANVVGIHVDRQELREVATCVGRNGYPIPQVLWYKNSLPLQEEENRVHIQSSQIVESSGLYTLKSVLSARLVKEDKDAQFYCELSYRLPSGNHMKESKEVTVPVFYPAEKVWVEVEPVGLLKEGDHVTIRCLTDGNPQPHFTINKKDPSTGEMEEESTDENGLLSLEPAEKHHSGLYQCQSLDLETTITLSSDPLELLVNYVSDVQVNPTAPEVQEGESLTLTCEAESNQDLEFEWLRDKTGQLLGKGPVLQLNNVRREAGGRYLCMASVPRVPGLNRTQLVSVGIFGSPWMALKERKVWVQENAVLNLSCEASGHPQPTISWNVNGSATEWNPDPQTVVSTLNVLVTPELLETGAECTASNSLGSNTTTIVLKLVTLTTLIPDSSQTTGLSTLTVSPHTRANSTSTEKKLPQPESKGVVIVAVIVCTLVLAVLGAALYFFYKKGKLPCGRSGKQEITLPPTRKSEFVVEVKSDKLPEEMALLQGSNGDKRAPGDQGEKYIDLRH

[3] = target: CD36 (endogenous, in bone marrow-derived macrophages) (mouse (endogenous in BMDMs)) (UniProt Q08857); assay: as above

Molecule	binding [1]	binding [2]	binding [3]
CD36 (endogenous, in bone marrow-derived macrophages) (from UniProt Q08857 1-472) (receptor)	binds	binds	–
CD146 (endogenous, in bone marrow-derived macrophages) (receptor, UniProt Q8R2Y2 24-648) VPGEEKQPVPTPDLVEAEVGSTALLKCGPSRASGNFSQVDWFLIHKERQILIFRVHQGKGQREPGEYEHRLSLQDSVATLALSHVTPHDERMFLCKSKRPRLQDHYVELQVFKAPEEPTIQANVVGIHVDRQELREVATCVGRNGYPIPQVLWYKNSLPLQEEENRVHIQSSQIVESSGLYTLKSVLSARLVKEDKDAQFYCELSYRLPSGNHMKESKEVTVPVFYPAEKVWVEVEPVGLLKEGDHVTIRCLTDGNPQPHFTINKKDPSTGEMEEESTDENGLLSLEPAEKHHSGLYQCQSLDLETTITLSSDPLELLVNYVSDVQVNPTAPEVQEGESLTLTCEAESNQDLEFEWLRDKTGQLLGKGPVLQLNNVRREAGGRYLCMASVPRVPGLNRTQLVSVGIFGSPWMALKERKVWVQENAVLNLSCEASGHPQPTISWNVNGSATEWNPDPQTVVSTLNVLVTPELLETGAECTASNSLGSNTTTIVLKLVTLTTLIPDSSQTTGLSTLTVSPHTRANSTSTEKKLPQPESKGVVIVAVIVCTLVLAVLGAALYFFYKKGKLPCGRSGKQEITLPPTRKSEFVVEVKSDKLPEEMALLQGSNGDKRAPGDQGEKYIDLRH	–	–	binds
